{"source": "paper PMC3105080", "molecular_target": "T1, otoconin-90 (Oc90), full-length, FLAG-tagged (mouse) (UniProt Q9Z0L3)", "T1 sequence": "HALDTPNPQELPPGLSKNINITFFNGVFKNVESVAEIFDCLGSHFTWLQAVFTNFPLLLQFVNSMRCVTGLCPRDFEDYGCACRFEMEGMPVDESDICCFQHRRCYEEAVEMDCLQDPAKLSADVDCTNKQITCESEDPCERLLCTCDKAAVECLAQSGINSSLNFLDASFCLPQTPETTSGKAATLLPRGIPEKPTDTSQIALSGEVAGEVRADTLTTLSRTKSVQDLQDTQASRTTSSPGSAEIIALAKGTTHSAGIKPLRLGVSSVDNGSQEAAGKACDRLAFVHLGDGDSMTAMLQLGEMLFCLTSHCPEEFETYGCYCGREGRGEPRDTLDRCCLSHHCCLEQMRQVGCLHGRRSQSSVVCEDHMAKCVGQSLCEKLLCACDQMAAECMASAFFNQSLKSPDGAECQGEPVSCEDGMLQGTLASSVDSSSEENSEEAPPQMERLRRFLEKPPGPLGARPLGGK", "assay": "co-IP; HEK293 cells co-transfected with Oc90-FLAG and otolin or its domains; lysed in hypotonic buffer (10 mM Tris-HCl pH 7.5, 10 mM NaCl, 2 mM EDTA, 0.5% Triton-X-100), then 150 mM NaCl; anti-FLAG M2 beads 6 h at 4°C, washed 3 times with TBS; Western blot with otolin and Oc90 antibodies", "note": "No constants are given. Whether binding was seen depends on the method and setting. Binding seen in cells or lysates may run through a third protein. Some entries that bind do so weakly or less than the wild type. Sequences can lack the tags named with a protein.", "data": [{"binder": "otolin-TH domain construct (residues 1-342) (domain or fragment, UniProt Q4ZJM7 24-342) KTTPYTKFTKKSEGKEMLKGLKPSSGFFLDGEETVHTETAAMAEPTTGSPALAMAESTAGPSASATTRLLPFESFSLDTTGFVLNCCHCCSFVTGQKGEPGKMGKQGPKGETGDTGSPGHPGTTGPQGPKGQKGEKGLKGDRGDQGAGGIPGYPGKPGEQGALGPKGDKGTIGPAGTKGQKGSKGELCGNGTKGEKGDPGASGAHGFIGEPGAKGEKGGVGEKGYRGDLGERGEKGQKGEKGMEGEKGSRGDVGSEGKRGSDGLPGLRGDSGPKGEKGEIGSPGFTGPAGPKGELGSKGVRGPTGKKGSRGVKGSKGEA", "values": [{"measurement": "binding", "result": "binds"}]}, {"binder": "otolin-C1q domain construct (residues 1-60 fused with residues 343-482) (domain or fragment, UniProt Q4ZJM7 24-60; Q4ZJM7 343-482) KTTPYTKFTKKSEGKEMLKGLKPSSGFFLDGEETVHTTQVPQSAFSALLSKPFPPPNVPIKFDKILSNDQGDYSPVTGKFNCSVPGTYIFSYHVTVRGRPARISLVARNRKQFKSRETLYGQQVDQASLLLILKLSAGDQVWLEVSKDWNGLYVGPEDDSIFSGFLLYPEETFSKSP", "values": [{"measurement": "binding", "result": "binds"}]}]}
